Drawing on patent US9868695B2 (priority 2014, dated 2018), this text covers IC50 for one compound.

pIC50: −log10 of the molar value.

Experiment [1] relates to Colo-205. Nature of the experiment: Antiproliferative activity, MTT assay, Colo-205. It is filed as cell-based. The settings on record: Homo sapiens, 48 h. How it is done: (§1) Human colon cancer cell lines HCT-116 (NCI, passage no. 5) and Colo-205 116 (NCI, passage no. 3) were procured from National Cancer Institute, USA. HCT-116 and Colo-205 cells were grown in McCoy's 5A and RPMI growth medium respectively containing 10% FCS, 100 U penicillin and […] per mL medium. Cells were grown in CO2 incubator (Thermocon Electron Corporation, Houston, Tex.) at 37° C. with 95% humidity and 5% CO2 gas environment. Cells treated with tested materials were dissolved in DMSO while the untreated control cultures received only the vehicle (DMSO<0.2%). Cells were seeded in 96 well plates and exposed to tested compounds at various concentrations for 48 h time interval. MTT dye (2.5 mg/ml in PBS) was added 4 hrs priors to experiment termination. The plates were then centrifuged at 1500 rpm for 15 min and the supernatant was discarded, and MTT formazan crystals were dissolved in 150 μl of DMSO. The OD measured at 570 nm with reference wavelength of 620 nm.
(§2) The percentages of cell viability and growth inhibition were calculated using formulas: […]
For orientation: Tetrazolium assays rely on reduction of a dye to a coloured formazan, in cell work by metabolically active cells.

Experiment [2] has as its system HCT-116. Nature of the experiment: Antiproliferative activity, MTT assay, HCT-116. The conditions noted are these: Homo sapiens, 48 h. It is filed as cell-based. The procedure: as §1, §2

As to `COc1cc2c(c(OC)c1OC)-c1ccc(OC)c(=O)cc1[C@@H](NC(C)=O)CC2` [Compound 1, Colchicine], the pIC50 was 7.49 in experiment [1] and 7.30 in experiment [2].

A word on the pIC50: it is −log10 of the IC50, conventionally taken in molar units. A higher pIC50 goes with a small IC50.
